Experimental data as given in patent US9937139B2 (priority 2014, dated 2018).
Some of these results come from one statement about several compounds together.

By UniProt entry, the sequences of proteins in these tests, tags left out. Where a name states a change or a piece, a line headed by the entry shows the natural chain unless it says otherwise.
UniProt Q01650: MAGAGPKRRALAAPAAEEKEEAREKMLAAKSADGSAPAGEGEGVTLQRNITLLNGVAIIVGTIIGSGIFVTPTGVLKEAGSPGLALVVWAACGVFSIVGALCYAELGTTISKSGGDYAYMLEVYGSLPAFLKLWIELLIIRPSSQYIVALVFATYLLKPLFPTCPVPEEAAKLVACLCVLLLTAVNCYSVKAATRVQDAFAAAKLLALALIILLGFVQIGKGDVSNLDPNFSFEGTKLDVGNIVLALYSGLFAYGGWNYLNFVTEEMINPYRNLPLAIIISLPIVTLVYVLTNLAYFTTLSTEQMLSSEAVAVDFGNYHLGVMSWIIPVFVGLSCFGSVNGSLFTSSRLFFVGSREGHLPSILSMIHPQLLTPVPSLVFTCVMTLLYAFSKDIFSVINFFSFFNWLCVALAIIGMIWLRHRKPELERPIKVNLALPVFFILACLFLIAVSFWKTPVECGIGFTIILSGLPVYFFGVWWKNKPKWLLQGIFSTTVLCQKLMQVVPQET

Assays:
hLAT1 = biological target: T1, hLAT1 (Homo sapiens, UniProt Q01650); assay type: cell-based
T1 construct: expressed in transfected cells; host or cells: LLCPK cells (pig kidney line), tetracycline/doxycycline-inducible, butyrate-stimulated

[1] = system: LLCPK cells conditionally expressing hLAT1; assay: LAT1-specific in vitro cytotoxicity, modified clonigenic assay; assay type: cell-based; conditions: 3 μM test compound for 30 min, then 7-10 days proliferation; induced (LAT1+) vs non-induced

Cc1ccc(N(CCCl)CCCl)cc1C(CN)CC(=O)O (centres unmarked) [Example 2, 4-Amino-3-[5-[bis(2-chloroethyl)amino]-2-methyl-phenyl]butanoic acid]
specific uptake of radiolabeled gabapentin into LAT1-expressing cells inhibited (in words) (hLAT1): inhibited
percent surviving cells in cells expressing LAT1 compared to cells not expressing LAT1 [1]: at least 20%

Cc1ccc(N(CCCl)CCCl)c(C)c1C(CN)CC(=O)O (centres unmarked) [Example 3, 4-Amino-3-[3-[bis(2-chloroethyl)amino]-2,6-dimethyl-phenyl]butanoic acid]
specific uptake of radiolabeled gabapentin into LAT1-expressing cells inhibited (in words) (hLAT1): inhibited
percent surviving cells in cells expressing LAT1 compared to cells not expressing LAT1 [1]: at least 20%

CC(CN)(CC(=O)O)c1cccc(N(CCCl)CCCl)c1 (centres unmarked) [Example 4, 4-Amino-3-[3-[bis(2-chloroethyl)amino]phenyl]-3-methyl-butanoic acid]
specific uptake of radiolabeled gabapentin into LAT1-expressing cells inhibited (in words) (hLAT1): inhibited
percent surviving cells in cells expressing LAT1 compared to cells not expressing LAT1 [1]: at least 20%

Cc1ccc(N(CCCl)CCCl)cc1C(C)(CN)CC(=O)O (centres unmarked) [Example 5, 4-Amino-3-[5-[bis(2-chloroethyl)amino]-2-methyl-phenyl]-3-methyl-butanoic acid]
specific uptake of radiolabeled gabapentin (percent of specific [3H]-GP uptake) (hLAT1): less than 10%
specific uptake of radiolabeled gabapentin into LAT1-expressing cells inhibited (in words) (hLAT1): inhibited
percent surviving cells in cells expressing LAT1 compared to cells not expressing LAT1 [1]: at least 20%

Cc1c(N(CCCl)CCCl)cccc1C(C)(CN)CC(=O)O (centres unmarked) [Example 6, 4-Amino-3-[3-[bis(2-chloroethyl)amino]-2-methyl-phenyl]-3-methyl-butanoic acid]
specific uptake of radiolabeled gabapentin into LAT1-expressing cells inhibited (in words) (hLAT1): inhibited

Cc1cc(N(CCCl)CCCl)ccc1C(C)(CN)CC(=O)O (centres unmarked) [Example 7, 4-Amino-3-[4-[bis(2-chloroethyl)amino]-2-methyl-phenyl]-3-methyl-butanoic acid]
specific uptake of radiolabeled gabapentin (percent of specific [3H]-GP uptake) (hLAT1): less than 10%
specific uptake of radiolabeled gabapentin into LAT1-expressing cells inhibited (in words) (hLAT1): inhibited
percent surviving cells in cells expressing LAT1 compared to cells not expressing LAT1 [1]: at least 20%

NCC1(CC(=O)O)CCCCC1 [gabapentin, reference compound]
specific uptake of radiolabeled gabapentin (percent of specific [3H]-GP uptake) (hLAT1): less than 10%
specific uptake of radiolabeled gabapentin into LAT1-expressing cells inhibited (in words) (hLAT1): inhibited

N[C@@H](Cc1ccccc1)C(=O)O [phenylalanine, reference compound]
specific uptake of radiolabeled gabapentin (percent of specific [3H]-GP uptake) (hLAT1): less than 10%
specific uptake of radiolabeled gabapentin into LAT1-expressing cells inhibited (in words) (hLAT1): inhibited
